# Measurements reported in PubChem BioAssay AID1671190 (National Center for Advancing Translational Sciences (NCATS), 2021).
# Amino acid sequences for entries named in this document (tags omitted).
# UniProt P18054, whole entry, looked up: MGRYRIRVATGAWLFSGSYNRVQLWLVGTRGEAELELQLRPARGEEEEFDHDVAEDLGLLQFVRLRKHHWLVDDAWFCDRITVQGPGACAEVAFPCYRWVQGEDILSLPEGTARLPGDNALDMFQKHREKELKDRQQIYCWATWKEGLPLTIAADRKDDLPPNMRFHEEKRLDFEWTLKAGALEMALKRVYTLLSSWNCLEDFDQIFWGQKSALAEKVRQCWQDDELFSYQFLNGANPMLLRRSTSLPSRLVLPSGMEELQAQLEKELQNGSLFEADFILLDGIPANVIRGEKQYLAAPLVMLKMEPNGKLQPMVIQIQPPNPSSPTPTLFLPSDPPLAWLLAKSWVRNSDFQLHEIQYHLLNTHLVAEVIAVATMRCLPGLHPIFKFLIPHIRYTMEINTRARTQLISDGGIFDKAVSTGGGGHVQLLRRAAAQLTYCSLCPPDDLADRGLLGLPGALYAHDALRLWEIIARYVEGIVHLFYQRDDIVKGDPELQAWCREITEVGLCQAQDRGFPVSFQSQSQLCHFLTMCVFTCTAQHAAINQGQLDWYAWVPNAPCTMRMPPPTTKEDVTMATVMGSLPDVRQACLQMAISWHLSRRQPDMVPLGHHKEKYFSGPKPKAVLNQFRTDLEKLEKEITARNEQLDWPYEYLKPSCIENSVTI
# Where “and” joins values, the source holds several entries; their conditions need not be identical. Equal values may be shown once. The campaign covered roughly 580,000 compounds. About 6,100 (1.1%) were called active. Inconclusive means that the source gave no clear call. Such entries were picked first, then a sample of the others. The call rests on the fitted dose curve; in most records, active means well fitted inhibition curve with a large enough effect; inconclusive means small, poorly fitted or top-dose-only effect, or another doubt; inactive means no such curve, though single readings can be large or run the other way. Potencies of inconclusive entries are doubtful fits and often do not repeat.
# Biological target: Polyunsaturated fatty acid lipoxygenase ALOX12 (Homo sapiens) (UniProt P18054)
# Assay: Primary qHTS assay for inhibitors of human arachidonate 12S-lipoxygenase (ALOX12): Round 2
# Details: purified 12hLO, xylenol orange hydroperoxide absorbance; activity change, negative = inhibition: at 108 µM (top of the series) unless noted
# In short: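 Hydroperoxide product was detected by ferrous iron/xylenol orange as the 573 to 405 nm absorbance ratio. Arachidonic acid at 40 uM (final) was turned over for 30 min at room temperature by 150 nM human 12hLO, pH 7.0 Hepes buffer, after 15 min compound preincubation.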
# On the % scale 0 is the no-effect control and ±100 the full control effect; potency means the concentration at half of the fitted maximal effect.
Compound,Potency,"activity change, negative = inhibition"
CCc1ccc(N(CC)C(=O)c2ccc3c(=O)n4c(nc3c2)CCCCC4)cc1,"inconclusive: 100 µM [inhibitor, partial curve, poor fit]",
COC(=O)c1c(-c2cccs2)csc1NC(=O)c1ccc(Cl)cc1,,inactive: -24.6%
O/N=C/C(Cl)=C(Sc1ccc(Cl)cc1)Sc1ccc(Cl)cc1,"inconclusive: 44.7 µM [inhibitor, partial curve, poor fit]",
Cc1cc(C)c(S(=O)(=O)N2CCC(n3c(CC(C)C)nc4cccnc43)CC2)c(C)c1,"inconclusive: 70.8 µM [inhibitor, partial curve, poor fit]",
COc1ccc(N=C2NC(=O)/C(=C/c3ccc(O)c(OC)c3)S2)cc1,,inactive: -17.6%
CCN(CC)S(=O)(=O)N(C)CC1CCCN(CCc2ccccc2OC)C1 (configuration not stated),,inactive: 28.6%
c1ccc(C[C@H]2CN=C(Nc3ccccc3)N2CC2CCC2)cc1,,inactive: 4.95%
Cc1ccc2[nH]cc(CCNC(=O)c3cc(F)ccc3F)c2c1,"inconclusive: 50.1 µM [inhibitor, partial curve, poor fit]",
CC1CCC/C(=C(\C#N)c2nc(-c3cc4ccccc4oc3=O)cs2)C1 (configuration not stated),"inconclusive: 44.7 µM [inhibitor, partial curve, poor fit]",
Cc1ccc2[nH]c(=O)c(CN(CCCO)S(=O)(=O)c3c(C)ccc4nsnc34)cc2c1,,inactive: 1.46%
Nc1nc(Cl)nc(Nc2cccc(F)c2)c1[N+](=O)[O-],"inconclusive: 7.94 µM [inhibitor, full curve]",
Cc1cc(C)c(S(=O)(=O)Nc2cccc(-c3cn4ccc(C)cc4n3)c2)c(C)c1,,inactive: 4.41%
O=C(Nc1cccc([N+](=O)[O-])c1)c1ccc2ccccc2c1O,,inactive: 0%
Oc1ccc(/C=N/Nc2cc(N3CCCC3)nc(N3CCCC3)n2)cc1O,"inconclusive: 141 µM [inhibitor, partial curve, poor fit]",
O=C(Cc1ccccc1)N(Cc1cccc2[nH]ccc12)C1CC1,"inconclusive: 0.355 µM [inhibitor, full curve, poor fit]",
CCCc1cc(=O)oc2cc(OCc3ccc(OC)cc3)c(Cl)cc12,,inactive: 0.327%
Cc1ccccc1NC(=O)Cn1cnc2c(oc3ccccc32)c1=O,,inactive: -2.26%
CCCCC(CC)CNC(=O)c1[nH]c(C)c(C(C)=O)c1C (configuration not stated),,inactive: 158%
CCC(=O)Nc1cc(NC(=O)CSc2ncc(-c3ccc(F)cc3)n2Cc2ccco2)ccc1C,"inconclusive: 158 µM [inhibitor, partial curve, poor fit]",
CN=C(C)/C(C(=O)OC)=C(/O)c1ccccc1F,"inconclusive: 89.1 µM [inhibitor, partial curve, poor fit]",
O=[S+]1([O-])NCC2(CCN(CC3CCCC3)CC2)Oc2ncccc21,"inconclusive: 70.8 µM [inhibitor, partial curve, poor fit]",
CC(C)CN=Cc1c(O)c([N+](=O)[O-])cc2oc3c(c12)CCCC3,"inconclusive: 112 µM [inhibitor, partial curve, poor fit]",
CC(C)NC(=O)CSc1nnc(CNC(=O)OC(C)(C)C)n1C,"inconclusive: 35.5 µM [inhibitor, partial curve, poor fit]",

# No new results follow: entries from further up.
Compound,Potency,"activity change, negative = inhibition"
Cc1cc(C)c(S(=O)(=O)N2CCC(n3c(CC(C)C)nc4cccnc43)CC2)c(C)c1,"inconclusive: 70.8 µM [inhibitor, partial curve, poor fit]",
COc1ccc(N=C2NC(=O)/C(=C/c3ccc(O)c(OC)c3)S2)cc1,,inactive: -17.6%
CCN(CC)S(=O)(=O)N(C)CC1CCCN(CCc2ccccc2OC)C1 (configuration not stated),,inactive: 28.6%
c1ccc(C[C@H]2CN=C(Nc3ccccc3)N2CC2CCC2)cc1,,inactive: 4.95%
Cc1ccc2[nH]cc(CCNC(=O)c3cc(F)ccc3F)c2c1,"inconclusive: 50.1 µM [inhibitor, partial curve, poor fit]",
CC1CCC/C(=C(\C#N)c2nc(-c3cc4ccccc4oc3=O)cs2)C1 (configuration not stated),"inconclusive: 44.7 µM [inhibitor, partial curve, poor fit]",
Cc1ccc2[nH]c(=O)c(CN(CCCO)S(=O)(=O)c3c(C)ccc4nsnc34)cc2c1,,inactive: 1.46%
Nc1nc(Cl)nc(Nc2cccc(F)c2)c1[N+](=O)[O-],"inconclusive: 7.94 µM [inhibitor, full curve]",
Cc1cc(C)c(S(=O)(=O)Nc2cccc(-c3cn4ccc(C)cc4n3)c2)c(C)c1,,inactive: 4.41%
O=C(Nc1cccc([N+](=O)[O-])c1)c1ccc2ccccc2c1O,,inactive: 0%
Oc1ccc(/C=N/Nc2cc(N3CCCC3)nc(N3CCCC3)n2)cc1O,"inconclusive: 141 µM [inhibitor, partial curve, poor fit]",
O=C(Cc1ccccc1)N(Cc1cccc2[nH]ccc12)C1CC1,"inconclusive: 0.355 µM [inhibitor, full curve, poor fit]",
CCCc1cc(=O)oc2cc(OCc3ccc(OC)cc3)c(Cl)cc12,,inactive: 0.327%
Cc1ccccc1NC(=O)Cn1cnc2c(oc3ccccc32)c1=O,,inactive: -2.26%
CCCCC(CC)CNC(=O)c1[nH]c(C)c(C(C)=O)c1C (configuration not stated),,inactive: 158%
CCC(=O)Nc1cc(NC(=O)CSc2ncc(-c3ccc(F)cc3)n2Cc2ccco2)ccc1C,"inconclusive: 158 µM [inhibitor, partial curve, poor fit]",
CN=C(C)/C(C(=O)OC)=C(/O)c1ccccc1F,"inconclusive: 89.1 µM [inhibitor, partial curve, poor fit]",

# (further entries)

Compound,Potency,"activity change, negative = inhibition"
COc1cccc(OC)c1C(=O)OCC(=O)N(C)c1ccccc1,,inactive: -10.2%
COc1ccc(NC(=O)N2C[C@@H]3C[C@H](C2)c2ccc(NC(=O)Nc4cccc(C#N)c4)c(=O)n2C3)cc1,,inactive: -39.5%
Cc1cccc(-c2nnc3sc(NC(=O)c4cccc(F)c4)nn23)c1,"inconclusive: 0.282 µM [inhibitor, full curve, poor fit]",
O=C(c1c[nH]c2ccccc12)C(Nc1cccc(CO)c1)c1ccccc1 (configuration not stated),"inconclusive: 112 µM [inhibitor, single point]",
COc1ccc(C2CC(c3ccc4ccccc4c3)=NN2C(=O)CNC2CCCCC2)cc1 (configuration not stated),active: 44.7 µM,
O=C(Nc1ccnn1C1CCCCC1)C1(c2ccccc2)CC1,,inactive: -1.74%
CCN(CC)c1ccc(C=Nc2cccc(S(=O)(=O)N3CCOCC3)c2)c(O)c1,"inconclusive: 28.2 µM [inhibitor, partial curve, poor fit]",
CC(C)NC(=O)CCNC(=O)N1CCn2c1nc1ccccc12,,inactive: 5.52%
FC(F)(F)c1ccccc1/C=N/n1c(COc2ccccc2)n[nH]c1=S,"inconclusive: 44.7 µM [inhibitor, partial curve, poor fit]",
Cc1ccc2c(c1)nnn2C1CCN(C(=O)Nc2ccccc2C)CC1,"inconclusive: 200 µM [inhibitor, partial curve, poor fit]",
COc1ccccc1CNCc1ccc(OC)c2ccccc12,"inconclusive: 0.398 µM [inhibitor, full curve, poor fit]",
CN(CC(=O)NC1(C)CCS(=O)(=O)C1)Cc1ccccc1 (configuration not stated),,inactive: -3.72%
CCCCCC1CC(CC#CCN2CCOCC2)C(=O)O1 (configuration not stated),"inconclusive: 0.501 µM [inhibitor, full curve, poor fit]",
CCc1ccc(NC(=O)N2CCCC(c3noc(COc4ccccc4F)n3)C2)cc1 (configuration not stated),"inconclusive: 22.4 µM [inhibitor, partial curve, poor fit]",
Cc1cc2ccccc2n1CCNC(=O)COc1ccccc1,"inconclusive: 35.5 µM [inhibitor, partial curve, poor fit]",
CC(Sc1nnc(-c2ccc(Cl)cc2Cl)n1Cc1ccccc1)C(=O)Nc1nccs1 (configuration not stated),,inactive: 0%
O=C(N/N=C/c1ccc([N+](=O)[O-])o1)c1ccc(NS(=O)(=O)c2cccs2)cc1,,inactive: -22.4%
O[C@@H]([C@H](O)[C@H](O)CBr)[C@H](O)CBr,"inconclusive: 10 µM [inhibitor, partial curve, poor fit]",
COC(=O)c1ccc(-n2cc(-c3ccc(OC)cc3)[nH]c2=S)cc1,"inconclusive: 44.7 µM [inhibitor, partial curve, poor fit]",
CCCn1c(C)cc(C(=O)CSc2nc3nc(C)cc(C)n3n2)c1C,"inconclusive: 6.31 µM [inhibitor, full curve, poor fit]",
Cc1cc(C)n(CC(=O)Nc2cc(C(F)(F)F)ccc2Cl)c(=O)c1C#N,"inconclusive: 112 µM [inhibitor, single point]",
CC(=O)N1CC(C)Sc2ccc(S(=O)(=O)NCCc3ccc(C)cc3)cc21 (configuration not stated),,inactive: 0.265%
COc1ccc(C(=O)NCCCNC(=O)c2cccnc2)cc1OC,,inactive: -10.4%

Compound,Potency,"activity change, negative = inhibition"
CSc1ccc(CCNC(=O)c2noc(C)c2Cn2nc(C)cc2C)cc1,"inconclusive: 39.8 µM [inhibitor, partial curve, poor fit]",
NC(=O)[C@H]1C[C@@H](O)[C@H](O)[C@H]2[C@@H]1SC(=Nc1ccccc1)N2CC1CCCCC1,"inconclusive: 28.2 µM [inhibitor, full curve, poor fit]",
COCc1nnc(NC(=O)CCc2ccc(OC)cc2)s1,"inconclusive: 17.8 µM [inhibitor, full curve, poor fit]",
CC1CC(C)CN(C(=O)COC(=O)COc2ccc(C#N)cc2)C1 (configuration not stated),"inconclusive: 100 µM [inhibitor, partial curve, poor fit]",
COc1ccc(OCc2cn(CC(=O)c3ccc(O)cc3)nn2)cc1,"inconclusive: 1.58 µM [inhibitor, full curve]",
Cn1c(SCC(=O)c2cc3ccccc3o2)nnc1-c1ccccc1,,inactive: -27.3%
N#Cc1cccc(NC(=O)N[C@H]2CC[C@@]34CCCN3C(=O)CCC[C@H]4C2Cc2ccccc2)c1 (some centres not stated),"inconclusive: 15.8 µM [inhibitor, partial curve, poor fit]",
CCN(Cc1nc2cc(Cl)ccc2c(=O)[nH]1)C(=O)Cc1csc(-c2ccc(C)cc2)n1,,inactive: -27%
CCOc1ccccc1NC(=S)NC(=O)C1CC1,"inconclusive: 56.2 µM [inhibitor, partial curve, poor fit]",
Cc1nc(CCNC(=O)Cc2ccsc2)no1,active: 35.5 µM,
CC1COCCN1Cc1coc(-c2cccc(F)c2)n1 (configuration not stated),,inactive: -35.2%
COc1ccc(N2CCN(C(=O)c3cn(C4CCCC4)c(=O)c4c3c3ccccc3n4C)CC2)cc1,"inconclusive: 31.6 µM [inhibitor, single point]",
CCOC(=O)c1ccc(NC(=O)C(C)Sc2nc(O)c(-c3ccccc3)c(=O)[nH]2)cc1 (configuration not stated),"inconclusive: 4.47 µM [inhibitor, full curve, poor fit]",
Cc1cc(C)cc(NC(=S)N(Cc2ccc(Br)cc2)Cc2ccc(C(=O)O)cc2)c1,active: 28.2 µM,
CC(=O)Nc1nc2ccc(CC(=O)N3CCN(c4ccccc4F)CC3)cc2s1,,inactive: 20.7%
CCOC(=O)c1ccc(N2C(=O)C(O)=C(C(C)=O)C2c2ccc([N+](=O)[O-])cc2)cc1 (configuration not stated),"inconclusive: 39.8 µM [inhibitor, partial curve]",
CCN(C(=O)CSc1ncc(S(=O)(=O)c2ccc(C)c(Cl)c2)c(=O)[nH]1)c1cccc(C)c1,"inconclusive: 56.2 µM [inhibitor, partial curve, poor fit]",
Cc1ccc(NC(=S)NCc2ccc3c(c2)OCO3)cc1,"inconclusive: 44.7 µM [inhibitor, partial curve, poor fit]",
CC(C)c1ccc(CN(C(=O)c2cc(=O)c3cc(Cl)ccc3o2)C2CCS(=O)(=O)C2)cc1 (configuration not stated),,inactive: 12.6%
COc1cccc(Cn2c(-c3nonc3N)nc3ccccc32)c1,,inactive: 0%
O=C(C1CCCN(Cc2ccccc2C(F)(F)F)C1)N1CCCCC1 (configuration not stated),"inconclusive: 631 nM [inhibitor, full curve] and inconclusive: 562 nM [inhibitor, full curve, poor fit]",
